Consider eleven targets from the supplement of paper PMC7666118.

Amino acid sequences for entries named in this document (tags omitted). A change or cut given only in a name is not applied to a line headed by its entry.
UniProt P50552: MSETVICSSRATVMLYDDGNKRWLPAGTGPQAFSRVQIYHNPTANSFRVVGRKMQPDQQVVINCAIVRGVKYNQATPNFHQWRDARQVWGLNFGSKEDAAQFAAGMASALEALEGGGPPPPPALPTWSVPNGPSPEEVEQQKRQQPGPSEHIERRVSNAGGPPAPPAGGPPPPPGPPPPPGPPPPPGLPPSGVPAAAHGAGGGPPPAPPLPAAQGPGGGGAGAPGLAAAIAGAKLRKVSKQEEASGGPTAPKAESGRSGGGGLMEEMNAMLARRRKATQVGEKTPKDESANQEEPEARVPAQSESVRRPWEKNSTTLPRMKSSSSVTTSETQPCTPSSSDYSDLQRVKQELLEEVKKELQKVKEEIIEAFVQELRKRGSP
UniProt P46939: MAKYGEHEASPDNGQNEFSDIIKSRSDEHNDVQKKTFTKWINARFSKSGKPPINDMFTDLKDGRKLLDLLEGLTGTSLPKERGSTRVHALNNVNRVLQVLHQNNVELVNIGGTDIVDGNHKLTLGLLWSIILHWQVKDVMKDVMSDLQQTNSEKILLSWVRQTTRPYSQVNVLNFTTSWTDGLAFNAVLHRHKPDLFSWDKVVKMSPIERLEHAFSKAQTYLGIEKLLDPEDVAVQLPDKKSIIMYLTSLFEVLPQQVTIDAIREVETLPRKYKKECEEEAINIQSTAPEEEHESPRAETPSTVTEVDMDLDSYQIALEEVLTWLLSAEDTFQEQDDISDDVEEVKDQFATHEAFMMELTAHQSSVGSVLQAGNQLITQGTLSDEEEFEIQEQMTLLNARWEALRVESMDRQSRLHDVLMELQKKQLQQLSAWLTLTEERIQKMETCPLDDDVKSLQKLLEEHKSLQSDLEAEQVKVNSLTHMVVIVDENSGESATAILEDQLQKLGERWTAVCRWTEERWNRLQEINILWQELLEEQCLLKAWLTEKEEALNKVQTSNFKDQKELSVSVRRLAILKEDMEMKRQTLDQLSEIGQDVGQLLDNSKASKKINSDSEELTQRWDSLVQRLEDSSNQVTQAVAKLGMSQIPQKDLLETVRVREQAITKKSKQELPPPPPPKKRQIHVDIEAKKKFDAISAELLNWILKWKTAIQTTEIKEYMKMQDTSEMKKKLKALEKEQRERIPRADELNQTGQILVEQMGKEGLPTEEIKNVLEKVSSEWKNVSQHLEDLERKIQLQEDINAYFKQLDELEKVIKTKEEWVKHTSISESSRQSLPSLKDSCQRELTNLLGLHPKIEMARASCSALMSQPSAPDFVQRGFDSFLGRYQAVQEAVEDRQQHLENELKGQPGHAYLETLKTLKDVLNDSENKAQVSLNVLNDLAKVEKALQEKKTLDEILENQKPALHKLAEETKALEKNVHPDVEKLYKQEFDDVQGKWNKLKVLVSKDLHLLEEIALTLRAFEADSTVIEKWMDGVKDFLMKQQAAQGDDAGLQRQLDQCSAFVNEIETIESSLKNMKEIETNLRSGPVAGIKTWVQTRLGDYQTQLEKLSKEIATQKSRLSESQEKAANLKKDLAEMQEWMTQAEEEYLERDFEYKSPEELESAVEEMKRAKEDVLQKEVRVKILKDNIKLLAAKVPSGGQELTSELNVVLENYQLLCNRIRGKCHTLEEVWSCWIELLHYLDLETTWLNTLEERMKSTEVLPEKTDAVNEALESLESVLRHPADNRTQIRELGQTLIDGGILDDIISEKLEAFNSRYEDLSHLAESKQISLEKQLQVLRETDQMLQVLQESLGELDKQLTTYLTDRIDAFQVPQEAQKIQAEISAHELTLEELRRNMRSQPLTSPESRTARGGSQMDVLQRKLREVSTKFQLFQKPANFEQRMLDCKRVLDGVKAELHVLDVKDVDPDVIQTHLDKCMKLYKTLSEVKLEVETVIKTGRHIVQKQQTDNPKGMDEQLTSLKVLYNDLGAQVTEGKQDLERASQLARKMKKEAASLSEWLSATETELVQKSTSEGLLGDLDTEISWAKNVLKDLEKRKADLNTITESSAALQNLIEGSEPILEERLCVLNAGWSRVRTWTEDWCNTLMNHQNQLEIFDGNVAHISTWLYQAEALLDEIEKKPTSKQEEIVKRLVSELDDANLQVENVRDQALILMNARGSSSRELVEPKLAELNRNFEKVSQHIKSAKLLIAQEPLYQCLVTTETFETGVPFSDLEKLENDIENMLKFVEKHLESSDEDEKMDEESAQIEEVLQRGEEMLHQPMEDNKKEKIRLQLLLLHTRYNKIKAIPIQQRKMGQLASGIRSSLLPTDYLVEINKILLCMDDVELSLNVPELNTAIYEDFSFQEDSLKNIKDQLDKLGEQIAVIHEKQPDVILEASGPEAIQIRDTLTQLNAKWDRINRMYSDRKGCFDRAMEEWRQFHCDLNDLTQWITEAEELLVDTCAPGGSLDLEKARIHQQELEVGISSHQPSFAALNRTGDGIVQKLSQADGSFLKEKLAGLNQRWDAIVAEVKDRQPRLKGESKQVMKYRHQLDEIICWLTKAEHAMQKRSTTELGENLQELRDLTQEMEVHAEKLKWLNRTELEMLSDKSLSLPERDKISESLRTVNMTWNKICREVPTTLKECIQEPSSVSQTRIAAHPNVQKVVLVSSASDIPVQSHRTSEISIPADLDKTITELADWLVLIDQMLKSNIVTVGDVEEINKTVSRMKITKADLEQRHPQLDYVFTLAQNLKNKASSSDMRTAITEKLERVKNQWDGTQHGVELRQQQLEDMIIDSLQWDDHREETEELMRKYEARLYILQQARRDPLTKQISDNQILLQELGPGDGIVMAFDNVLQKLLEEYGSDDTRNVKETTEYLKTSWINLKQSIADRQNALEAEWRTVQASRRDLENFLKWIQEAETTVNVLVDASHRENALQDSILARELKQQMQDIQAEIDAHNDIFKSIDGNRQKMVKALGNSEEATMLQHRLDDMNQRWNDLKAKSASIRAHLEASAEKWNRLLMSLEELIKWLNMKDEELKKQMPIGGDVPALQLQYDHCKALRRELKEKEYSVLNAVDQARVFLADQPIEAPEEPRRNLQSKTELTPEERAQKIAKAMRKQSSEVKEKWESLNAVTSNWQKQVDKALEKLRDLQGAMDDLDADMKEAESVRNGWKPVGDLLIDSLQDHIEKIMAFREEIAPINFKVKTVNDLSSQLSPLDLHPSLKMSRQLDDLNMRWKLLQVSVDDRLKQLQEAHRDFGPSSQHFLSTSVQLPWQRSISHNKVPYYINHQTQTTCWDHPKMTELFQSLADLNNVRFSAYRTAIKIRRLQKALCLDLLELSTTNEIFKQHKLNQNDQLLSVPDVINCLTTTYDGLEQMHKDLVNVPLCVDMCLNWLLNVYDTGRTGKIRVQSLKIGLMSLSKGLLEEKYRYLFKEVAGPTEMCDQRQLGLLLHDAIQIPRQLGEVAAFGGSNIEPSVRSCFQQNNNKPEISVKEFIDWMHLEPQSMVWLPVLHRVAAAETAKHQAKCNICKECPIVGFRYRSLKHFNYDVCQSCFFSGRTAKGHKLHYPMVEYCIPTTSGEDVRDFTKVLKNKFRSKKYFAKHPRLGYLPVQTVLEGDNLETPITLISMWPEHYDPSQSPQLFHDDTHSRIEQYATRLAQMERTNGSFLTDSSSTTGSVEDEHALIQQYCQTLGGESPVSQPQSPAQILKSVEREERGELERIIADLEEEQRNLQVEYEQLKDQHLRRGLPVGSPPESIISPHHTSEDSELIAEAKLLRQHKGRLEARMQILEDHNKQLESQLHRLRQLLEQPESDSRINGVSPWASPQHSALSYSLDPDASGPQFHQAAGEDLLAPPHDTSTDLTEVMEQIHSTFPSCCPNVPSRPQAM
UniProt P49750: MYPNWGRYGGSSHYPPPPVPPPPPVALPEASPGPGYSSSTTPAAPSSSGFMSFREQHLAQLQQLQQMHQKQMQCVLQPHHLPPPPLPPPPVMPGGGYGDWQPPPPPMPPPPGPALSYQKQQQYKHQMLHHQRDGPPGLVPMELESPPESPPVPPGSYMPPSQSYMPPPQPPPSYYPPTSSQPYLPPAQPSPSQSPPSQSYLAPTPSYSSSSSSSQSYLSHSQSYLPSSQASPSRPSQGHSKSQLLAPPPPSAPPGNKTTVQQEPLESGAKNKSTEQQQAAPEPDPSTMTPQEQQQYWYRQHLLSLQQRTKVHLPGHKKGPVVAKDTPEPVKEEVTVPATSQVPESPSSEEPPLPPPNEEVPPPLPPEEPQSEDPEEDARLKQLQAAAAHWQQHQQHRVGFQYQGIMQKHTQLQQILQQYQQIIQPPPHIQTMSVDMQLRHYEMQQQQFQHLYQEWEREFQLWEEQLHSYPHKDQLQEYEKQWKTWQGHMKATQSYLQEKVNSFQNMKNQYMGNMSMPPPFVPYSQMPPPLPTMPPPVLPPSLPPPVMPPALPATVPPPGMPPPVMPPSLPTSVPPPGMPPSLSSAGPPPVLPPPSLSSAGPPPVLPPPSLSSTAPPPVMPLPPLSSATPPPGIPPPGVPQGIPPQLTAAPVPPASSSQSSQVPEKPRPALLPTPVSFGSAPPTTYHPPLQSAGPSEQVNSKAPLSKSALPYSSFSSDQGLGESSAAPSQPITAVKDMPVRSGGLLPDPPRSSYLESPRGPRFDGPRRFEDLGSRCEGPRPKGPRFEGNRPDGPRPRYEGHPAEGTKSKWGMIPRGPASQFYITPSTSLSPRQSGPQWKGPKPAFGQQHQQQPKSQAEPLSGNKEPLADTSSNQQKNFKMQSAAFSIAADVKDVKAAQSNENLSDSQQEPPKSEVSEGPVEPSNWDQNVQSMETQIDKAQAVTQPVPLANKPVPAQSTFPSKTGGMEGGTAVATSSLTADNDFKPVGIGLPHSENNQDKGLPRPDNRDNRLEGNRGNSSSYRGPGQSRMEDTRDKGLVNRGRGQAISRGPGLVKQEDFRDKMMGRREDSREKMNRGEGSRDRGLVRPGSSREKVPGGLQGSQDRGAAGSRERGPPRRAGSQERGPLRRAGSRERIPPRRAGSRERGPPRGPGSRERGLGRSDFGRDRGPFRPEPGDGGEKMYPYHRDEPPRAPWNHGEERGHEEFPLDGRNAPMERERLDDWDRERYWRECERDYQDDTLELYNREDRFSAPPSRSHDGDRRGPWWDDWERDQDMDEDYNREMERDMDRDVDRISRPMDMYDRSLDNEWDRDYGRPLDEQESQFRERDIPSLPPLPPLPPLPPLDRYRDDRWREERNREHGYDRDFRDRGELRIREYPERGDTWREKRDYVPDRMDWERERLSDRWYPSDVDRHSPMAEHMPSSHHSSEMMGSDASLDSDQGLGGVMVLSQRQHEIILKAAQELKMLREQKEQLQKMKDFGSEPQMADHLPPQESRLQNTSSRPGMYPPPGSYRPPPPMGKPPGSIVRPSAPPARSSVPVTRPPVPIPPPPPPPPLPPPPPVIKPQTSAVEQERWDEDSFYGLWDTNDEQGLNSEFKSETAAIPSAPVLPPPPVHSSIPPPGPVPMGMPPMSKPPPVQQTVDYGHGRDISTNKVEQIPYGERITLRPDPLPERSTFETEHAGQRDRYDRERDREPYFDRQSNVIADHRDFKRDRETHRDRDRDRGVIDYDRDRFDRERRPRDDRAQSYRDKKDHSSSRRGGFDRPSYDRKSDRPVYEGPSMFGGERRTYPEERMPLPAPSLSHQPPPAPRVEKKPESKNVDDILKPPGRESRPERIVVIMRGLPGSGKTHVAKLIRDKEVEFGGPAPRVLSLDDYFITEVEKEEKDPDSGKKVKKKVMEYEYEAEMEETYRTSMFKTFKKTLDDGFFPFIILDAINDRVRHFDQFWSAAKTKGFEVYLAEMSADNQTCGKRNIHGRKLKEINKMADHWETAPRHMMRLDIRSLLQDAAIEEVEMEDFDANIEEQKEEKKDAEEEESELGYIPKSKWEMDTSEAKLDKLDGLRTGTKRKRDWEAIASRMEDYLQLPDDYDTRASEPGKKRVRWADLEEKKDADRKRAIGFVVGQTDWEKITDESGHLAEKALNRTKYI

This is one part of the list.

Compound in the assay: COc1ccc(Cn2ccc3ccc(C(=O)NO)cc32)cc1
Nature of the assay: dose-dependent thermal stabilisation call (2D-TPP, DLPTP, 10% FDR) (binary (1 = stabilised)); higher = stabilised by the compound. Particulars: system: HL-60 intact cells; concentration range 0.04-10 µM.
As to VASP (UniProt P50552), the “dose-dependent thermal stabilisation call” value is inactive: 0.

With VLDLR (UniProt P98155), the “dose-dependent thermal stabilisation call” value is inactive: 0.

Turning to XPNPEP3 (UniProt Q9NQH7), the “dose-dependent thermal stabilisation call” value is active: 1.

Turning to UTRN (UniProt P46939), the “dose-dependent thermal stabilisation call” value is inactive: 0.

As for ZDHHC5 (UniProt Q9C0B5), the “dose-dependent thermal stabilisation call” value was inactive: 0.

For YLPM1 (UniProt P49750), the “dose-dependent thermal stabilisation call” value was inactive: 0.

As to YTHDC2 (UniProt Q9H6S0), the “dose-dependent thermal stabilisation call” value is inactive: 0.

Regarding WDR62 (UniProt O43379), the “dose-dependent thermal stabilisation call” value was inactive: 0.

As for WHSC2 (UniProt Q9H3P2), the “dose-dependent thermal stabilisation call” value was inactive: 0.

For the target VAT1 (UniProt Q99536), the “dose-dependent thermal stabilisation call” value was inactive: 0.

As for VPS26A (UniProt O75436), the “dose-dependent thermal stabilisation call” value is inactive: 0.
